# Data from the supplement of paper PMC12067093, “Discovery and optimisation of a covalent ligand for TRIM25 and its application to targeted protein ubiquitination” (Chemical Science, 2025).
# The other results are listed elsewhere or left out.
# Compound: CC1Cc2ccccc2N1C(=O)C1CCCN(C1)C(=O)CCl (mixture of isomers) [TRIM25 ligand 11 (diastereomer mixture)]
# Assay: probe-labelled cysteine peptide fold change vs DMSO (competition) (log2 fold change); higher = less target engagement (more negative = stronger competition)
# Details: 10 µM; THP-1; incubation time: 4 h
# 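Note: competitive chemoproteomic profiling in live THP-1 cells with an iodoacetamide desthiobiotin (IA-DTB) probe, comparing probe-labelled peptide intensities in compound-treated cells against DMSO-treated controls.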
row,Target,probe-labelled cysteine peptide fold change
1,BMP2K_Q9NSY1_912_KVNVQECHAVGPEAHTIPGYPK (UniProt Q9NSY1),-0.348
2,BCR_P11274_395_HCPVVVSEATIVGVR (UniProt P11274),0.0473
3,AVL9_Q8NBF6_119_SVCVLSK (UniProt Q8NBF6),0.162
4,BPGM_P07738_23_FCSWVDQK (UniProt P07738),-0.0584
5,BIRC6_Q9NR09_1293_GCDLLQEVSVTIRR (UniProt Q9NR09),-0.178
6,BOD1L1_Q8NFC6_2384_HKVPMPSLIAENNCR (UniProt Q8NFC6),-0.222
7,BANF1_O75531_67_DTCGANAK (UniProt O75531),-0.084
8,AZU1_P20160_207+222_RGGICNGDGGTPLVCEGLAHGVASFSLGPCGR (UniProt P20160),0.486
9,BIRC6_Q9NR09_4813+4828_LPCPEGLDPDTDDAPEVCR (UniProt Q9NR09),0.483
10,BCAT2_O15382_135_LCLPSFDK (UniProt O15382),0.102
11,BPGM_P07738_145_VCDVPLDQLPR (UniProt P07738),-0.246
12,ATRX_P46100_235_WCAEGGNLICCDFCHNAFCK (UniProt P46100),-0.0635
13,ATXN10_Q9UBB4_134_CGLQFLGNIASR (UniProt Q9UBB4),0.0956
14,BAZ1A_Q9NRL2_764_QEQINCVTR (UniProt Q9NRL2),0.0723
15,BAZ1A_Q9NRL2_586_GGFDATDDACMELR (UniProt Q9NRL2),-0.13
16,BABAM1_Q9NWV8_222_TILVYSRPPCQPQFSLTEPMKK (UniProt Q9NWV8),-0.0268
17,BDP1_A6H8Y1_2039_IVHECQELSSPVITTSPASFEENK (UniProt A6H8Y1),-0.286
18,BIN1_O00499_47_ADETKDEQFEQCVQNFNK (UniProt O00499),-0.18
19,ATXN10_Q9UBB4_65_SSHAVELACRDPSQVENLASSLQLITECFR (UniProt Q9UBB4),0.141

row,Target,probe-labelled cysteine peptide fold change
1,BCAT1_P54687_140_EELLECIQQLVK (UniProt P54687),0.336
2,AURKA_O14965_393_EVLEHPWITANSSKPSNCQNK (UniProt O14965),-0.187
3,BCORL1_Q5H9F3_1709_LLGSEVEFQSCNS (UniProt Q5H9F3),-0.0788
4,BIRC6_Q9NR09_566_HQEQHNIPFPCLLAGGLLTYK (UniProt Q9NR09),-0.0515
5,BCL10_O95999_57_EDTEEISCR (UniProt O95999),0.104
6,BAZ1B_Q9UIG0_338_LWCHVHLK (UniProt Q9UIG0),-0.0182
7,BAZ2A_Q9UIF9_795_AKPACK (UniProt Q9UIF9),-0.193
8,BOD1L1_Q8NFC6_1554_QSEVALPCTSIEADEGLIIGTHSR (UniProt Q8NFC6),-0.0709
9,BABAM2_Q9NXR7_254_IEHALGGSSALHIPAFPGGGCLIDYVPQVCHLLTNK (UniProt Q9NXR7),0.0304
10,BCKDHB_P21953_207_SPWGCVGHGALYHSQSPEAFFAHCPGIK (UniProt P21953),0.0884
11,BIN2_Q9UBW5_496_ENENIHNQNPEELCTSPTLMTSQVASEPGEAK (UniProt Q9UBW5),-0.432
12,BLMH_Q13867_269_ICLVNDPRPQHK (UniProt Q13867),0.137
13,BOP1_Q14137_532_ICHGKPVTQVTWHGR (UniProt Q14137),0.117
14,BAZ1A_Q9NRL2_1177_GHHTYCVRPK (UniProt Q9NRL2),0.0609
15,BAG6_P46379_349_CNLACTPPR (UniProt P46379),0.0312
16,BCAT1_P54687_293_RCILDLAHQWGEFK (UniProt P54687),-0.191
17,BCL2L2_Q92843_29_GYVCGAGPGEGPAADPLHQAMR (UniProt Q92843),0.24
18,BCCIP_Q9P287_141_GTQCVEQIQELVLR (UniProt Q9P287),0.0501
19,BAZ1B_Q9UIG0_1006_ELDELLNCLHPQGIR (UniProt Q9UIG0),0.0226

# Same assay, conditions: 50 µM; THP-1; incubation time: 4 h
row,Target,probe-labelled cysteine peptide fold change
1,BMP2K_Q9NSY1_912_KVNVQECHAVGPEAHTIPGYPK (UniProt Q9NSY1),-0.373
2,BCR_P11274_395_HCPVVVSEATIVGVR (UniProt P11274),-0.124
3,AVL9_Q8NBF6_119_SVCVLSK (UniProt Q8NBF6),0.0858
4,BPGM_P07738_23_FCSWVDQK (UniProt P07738),-0.12
5,BIRC6_Q9NR09_1293_GCDLLQEVSVTIRR (UniProt Q9NR09),-0.0856
6,BOD1L1_Q8NFC6_2384_HKVPMPSLIAENNCR (UniProt Q8NFC6),-0.258
7,BANF1_O75531_67_DTCGANAK (UniProt O75531),0.00517
8,AZU1_P20160_207+222_RGGICNGDGGTPLVCEGLAHGVASFSLGPCGR (UniProt P20160),0.439
9,BIRC6_Q9NR09_4813+4828_LPCPEGLDPDTDDAPEVCR (UniProt Q9NR09),-0.0936
10,BCAT2_O15382_135_LCLPSFDK (UniProt O15382),0.495
11,BPGM_P07738_145_VCDVPLDQLPR (UniProt P07738),0.0525
12,ATRX_P46100_235_WCAEGGNLICCDFCHNAFCK (UniProt P46100),0.0409
13,ATXN10_Q9UBB4_134_CGLQFLGNIASR (UniProt Q9UBB4),0.534
14,BAZ1A_Q9NRL2_764_QEQINCVTR (UniProt Q9NRL2),-0.101
15,BAZ1A_Q9NRL2_586_GGFDATDDACMELR (UniProt Q9NRL2),-0.109
16,BABAM1_Q9NWV8_222_TILVYSRPPCQPQFSLTEPMKK (UniProt Q9NWV8),-0.16
17,BDP1_A6H8Y1_2039_IVHECQELSSPVITTSPASFEENK (UniProt A6H8Y1),-0.339
18,BIN1_O00499_47_ADETKDEQFEQCVQNFNK (UniProt O00499),-0.0534
19,ATXN10_Q9UBB4_65_SSHAVELACRDPSQVENLASSLQLITECFR (UniProt Q9UBB4),-0.101

row,Target,probe-labelled cysteine peptide fold change
1,BCAT1_P54687_140_EELLECIQQLVK (UniProt P54687),0.314
2,AURKA_O14965_393_EVLEHPWITANSSKPSNCQNK (UniProt O14965),-0.235
3,BCORL1_Q5H9F3_1709_LLGSEVEFQSCNS (UniProt Q5H9F3),-0.044
4,BIRC6_Q9NR09_566_HQEQHNIPFPCLLAGGLLTYK (UniProt Q9NR09),-0.124
5,BCL10_O95999_57_EDTEEISCR (UniProt O95999),0.15
6,BAZ1B_Q9UIG0_338_LWCHVHLK (UniProt Q9UIG0),-0.194
7,BAZ2A_Q9UIF9_795_AKPACK (UniProt Q9UIF9),-0.0702
8,BOD1L1_Q8NFC6_1554_QSEVALPCTSIEADEGLIIGTHSR (UniProt Q8NFC6),-0.164
9,BABAM2_Q9NXR7_254_IEHALGGSSALHIPAFPGGGCLIDYVPQVCHLLTNK (UniProt Q9NXR7),0.0849
10,BCKDHB_P21953_207_SPWGCVGHGALYHSQSPEAFFAHCPGIK (UniProt P21953),-0.0392
11,BIN2_Q9UBW5_496_ENENIHNQNPEELCTSPTLMTSQVASEPGEAK (UniProt Q9UBW5),-0.111
12,BLMH_Q13867_269_ICLVNDPRPQHK (UniProt Q13867),0.13
13,BOP1_Q14137_532_ICHGKPVTQVTWHGR (UniProt Q14137),0.402
14,BAZ1A_Q9NRL2_1177_GHHTYCVRPK (UniProt Q9NRL2),-0.0936
15,BAG6_P46379_349_CNLACTPPR (UniProt P46379),0.0685
16,BCAT1_P54687_293_RCILDLAHQWGEFK (UniProt P54687),-0.0959
17,BCL2L2_Q92843_29_GYVCGAGPGEGPAADPLHQAMR (UniProt Q92843),-0.281
18,BCCIP_Q9P287_141_GTQCVEQIQELVLR (UniProt Q9P287),0.114
19,BAZ1B_Q9UIG0_1006_ELDELLNCLHPQGIR (UniProt Q9UIG0),0.00108
